Assay results published in article PMC10755771.
Results are given in words; binding and its absence hold for the method and conditions named. Binding seen in cells or lysates may run through a third protein. Some entries that bind do so weakly or less than the wild type.

Chains of the proteins cited; added tags and fusions are not shown. Lines headed by an entry give the natural chain unless they say otherwise; changes in a name come on top.
UniProt Q92783: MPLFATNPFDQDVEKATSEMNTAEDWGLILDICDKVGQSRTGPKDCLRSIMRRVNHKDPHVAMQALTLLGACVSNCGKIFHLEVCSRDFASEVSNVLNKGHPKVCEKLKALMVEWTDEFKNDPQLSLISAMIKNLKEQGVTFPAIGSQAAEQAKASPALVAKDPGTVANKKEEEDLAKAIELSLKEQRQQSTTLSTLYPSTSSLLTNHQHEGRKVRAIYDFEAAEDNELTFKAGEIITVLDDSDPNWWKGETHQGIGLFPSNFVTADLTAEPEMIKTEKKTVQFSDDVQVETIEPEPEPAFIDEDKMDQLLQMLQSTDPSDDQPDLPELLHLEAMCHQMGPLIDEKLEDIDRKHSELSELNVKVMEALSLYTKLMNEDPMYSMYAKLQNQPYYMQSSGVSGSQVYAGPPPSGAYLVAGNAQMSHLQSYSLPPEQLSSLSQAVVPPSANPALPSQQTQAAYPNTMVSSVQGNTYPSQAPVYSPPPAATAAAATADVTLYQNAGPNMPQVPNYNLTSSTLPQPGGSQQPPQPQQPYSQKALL
UniProt P49407: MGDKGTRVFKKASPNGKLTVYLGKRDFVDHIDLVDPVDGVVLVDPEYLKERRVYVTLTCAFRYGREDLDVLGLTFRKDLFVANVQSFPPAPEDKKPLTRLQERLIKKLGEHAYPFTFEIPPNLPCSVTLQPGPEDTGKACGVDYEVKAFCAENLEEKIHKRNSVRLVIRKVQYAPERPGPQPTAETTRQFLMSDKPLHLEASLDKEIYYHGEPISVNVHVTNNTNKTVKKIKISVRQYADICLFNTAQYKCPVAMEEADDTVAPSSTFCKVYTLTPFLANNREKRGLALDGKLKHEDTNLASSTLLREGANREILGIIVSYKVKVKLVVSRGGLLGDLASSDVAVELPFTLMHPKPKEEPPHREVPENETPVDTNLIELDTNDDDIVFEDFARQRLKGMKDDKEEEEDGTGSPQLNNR

Legend:
Rluc8-STAM1 (wild type) = Rluc8-STAM1 (wild type) (UniProt Q92783); test: FRET or BRET; HEK293 cells cotransfected with FLAG-CXCR4, Rluc8-STAM1 (WT or K136R; donor) and βarr1-GFP10 (acceptor); stimulated with increasing concentrations of CXCL12; DeepBlueC substrate; net BRET
Rluc8-STAM1-K136R = Rluc8-STAM1-K136R (UniProt Q92783); test: as above

binding (Rluc8-STAM1 (wild type)): binds | binding (Rluc8-STAM1-K136R): binds
Substance: βarr1-GFP10 (from UniProt P49407 1-418)
